Results are given in words; binding and its absence hold for the method and conditions named. Some binding calls cover weakened binding; strength is not graded here. For part of these data: Tags and fused reporters may be left off the sequences shown.
T1: human GSDMD, full length (human), P57764
T1 chain: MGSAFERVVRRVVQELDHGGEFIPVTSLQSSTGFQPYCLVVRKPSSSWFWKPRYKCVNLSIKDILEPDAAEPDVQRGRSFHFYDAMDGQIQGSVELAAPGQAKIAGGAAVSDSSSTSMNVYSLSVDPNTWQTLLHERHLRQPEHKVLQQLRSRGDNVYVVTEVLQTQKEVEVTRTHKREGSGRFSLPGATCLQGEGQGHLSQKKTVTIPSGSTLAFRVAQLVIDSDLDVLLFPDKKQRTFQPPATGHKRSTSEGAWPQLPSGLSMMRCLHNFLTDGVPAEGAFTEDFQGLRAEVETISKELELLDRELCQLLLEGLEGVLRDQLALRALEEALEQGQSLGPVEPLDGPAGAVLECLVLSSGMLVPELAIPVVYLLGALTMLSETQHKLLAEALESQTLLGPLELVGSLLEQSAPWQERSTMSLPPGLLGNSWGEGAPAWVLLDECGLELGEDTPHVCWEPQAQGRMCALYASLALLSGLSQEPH

Protein sequences, listed by entry. Tags and fused reporters are not part of them. Lines headed by an entry give the natural chain unless they say otherwise; changes in a name come on top. Chains listed by the source or under a name are the forms on record and can include a tag or linker.
GSDMB D17S/R20Ins mutant (Q8TAX9, form named): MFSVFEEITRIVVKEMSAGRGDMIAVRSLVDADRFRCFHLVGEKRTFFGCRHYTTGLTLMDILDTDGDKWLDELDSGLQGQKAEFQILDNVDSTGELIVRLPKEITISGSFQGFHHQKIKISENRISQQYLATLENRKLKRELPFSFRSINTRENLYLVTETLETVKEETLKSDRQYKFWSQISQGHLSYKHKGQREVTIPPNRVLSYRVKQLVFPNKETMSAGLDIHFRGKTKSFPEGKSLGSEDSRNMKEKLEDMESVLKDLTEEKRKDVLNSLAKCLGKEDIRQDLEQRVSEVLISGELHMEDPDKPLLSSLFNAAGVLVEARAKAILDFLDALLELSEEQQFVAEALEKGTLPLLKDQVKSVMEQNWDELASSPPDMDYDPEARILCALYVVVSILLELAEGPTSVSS


Legend:
Assay in all cases: SEC; analytical gel filtration of IpaH7.8 incubated with GSDM (WT or mutants), fractions on Coomassie-stained SDS-PAGE; both purified
[1] = molecular target: GSDMB D17S/R20Ins mutant (human) (UniProt Q8TAX9)
[2] = molecular target: human GSDMD D17S/R20Ins mutant (human) (UniProt P57764)
[3] = molecular target: T1, human GSDMD, full length (human), P57764; settings: remark: other sources report otherwise

Row | Molecule | binding [1] | binding [2] | binding [3]
1 | Shigella flexneri IpaH7.8 (wild type), C-terminal 6XHis construct (from UniProt P18014 1-565) (enzyme) | no binding | no binding | –
2 | Shigella flexneri IpaH7.8 without affinity tag (co-expressed with GSDMB) (enzyme, only the LRR domain is visible in the map; source: E. coli BL21 (DE3), co-expressed with His6-SUMO-GSDMB, complex purified (Ni-NTA, Hitrap Q, Superdex 200)) MFSVNNTHSSVSCSPSINSNSTSNEHYLRILTEWEKNSSPGEERGIAFNRLSQCFQNQEAVLNLSDLNLTSLPELPKHISALIVENNKLTSLPKLPAFLKELNADNNRLSVIPELPESLTTLSVRSNQLENLPVLPNHLTSLFVENNRLYNLPALPEKLKFLHVYYNRLTTLPDLPDKLEILCAQRNNLVTFPQFSDRNNIRQKEYYFHFNQITTLPESFSQLDSSYRINISGNPLSTRVLQSLQRLTSSPDYHGPQIYFSMSDGQQNTLHRPLADAVTAWFPENKQSDVSQIWHAFEHEEHANTFSAFLDRLSDTVSARNTSGFREQVAAWLEKLSASAELRQQSFAVAADATESCEDRVALTWNNLRKTLLVHQASEGLFDNDTGALLSLGREMFRLEILEDIARDKVRTLHFVDEIEVYLAFQTMLAEKLQLSTAVKEMRFYGVSGVTANDLRTAEAMVRSREENEFTDWFSLWGPWHAVLKRTEADRWAQAEEQKYEMLENEYSQRVADRLKASGLSGDADAEREAGAQVMRETEQQIYRQLTDEVLALRLSENGSRLHHS | – | – | binds

Reference: PMC10115629, “Structural basis for GSDMB pore formation and its targeting by IpaH7.8” (Nature, 2023)
